This is one part of the list. Single values of this set are uncertain.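 Many melting curves are irregular; where none melted, Tm was taken as 64 °C.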
Compound: CCc1cnccc1C(=O)Nc1cc2c(cc1F)NC(=O)CC2
Test: melting temperature shift (DMSO Tm minus MBE1-treated Tm) in cellular thermal proteome profiling; higher = less thermal stabilization by MBE1 (negative = stabilized by MBE1)
Settings: A375

Protein sequences, listed by entry. Tags and fused reporters are not part of them. Lines headed by an entry give the natural chain unless they say otherwise; changes in a name come on top.
UniProt Q15257: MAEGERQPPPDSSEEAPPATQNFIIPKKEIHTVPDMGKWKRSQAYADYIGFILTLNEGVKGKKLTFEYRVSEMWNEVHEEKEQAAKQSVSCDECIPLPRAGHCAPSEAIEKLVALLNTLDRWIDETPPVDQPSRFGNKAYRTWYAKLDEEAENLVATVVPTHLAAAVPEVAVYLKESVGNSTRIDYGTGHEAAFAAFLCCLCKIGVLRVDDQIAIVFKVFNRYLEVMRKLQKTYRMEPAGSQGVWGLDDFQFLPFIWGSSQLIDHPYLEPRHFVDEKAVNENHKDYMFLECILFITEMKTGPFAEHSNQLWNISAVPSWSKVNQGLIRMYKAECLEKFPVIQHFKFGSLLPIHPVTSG
UniProt Q15582: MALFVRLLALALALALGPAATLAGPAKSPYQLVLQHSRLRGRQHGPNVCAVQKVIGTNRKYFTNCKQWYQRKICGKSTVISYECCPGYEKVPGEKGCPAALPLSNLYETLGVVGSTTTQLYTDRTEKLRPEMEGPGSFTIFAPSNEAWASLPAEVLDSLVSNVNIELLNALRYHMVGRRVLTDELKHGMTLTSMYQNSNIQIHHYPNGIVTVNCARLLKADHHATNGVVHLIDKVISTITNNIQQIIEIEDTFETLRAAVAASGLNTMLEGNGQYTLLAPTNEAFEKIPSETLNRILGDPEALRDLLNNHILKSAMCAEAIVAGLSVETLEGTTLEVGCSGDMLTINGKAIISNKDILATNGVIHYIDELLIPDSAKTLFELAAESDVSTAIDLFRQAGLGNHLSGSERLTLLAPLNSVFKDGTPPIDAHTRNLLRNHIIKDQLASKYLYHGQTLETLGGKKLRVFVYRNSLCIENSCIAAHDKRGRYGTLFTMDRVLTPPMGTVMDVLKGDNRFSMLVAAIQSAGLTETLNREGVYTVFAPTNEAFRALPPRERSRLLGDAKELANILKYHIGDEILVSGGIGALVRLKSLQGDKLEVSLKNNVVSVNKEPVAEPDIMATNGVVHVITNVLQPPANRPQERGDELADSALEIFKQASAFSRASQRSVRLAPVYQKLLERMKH
UniProt Q53H96: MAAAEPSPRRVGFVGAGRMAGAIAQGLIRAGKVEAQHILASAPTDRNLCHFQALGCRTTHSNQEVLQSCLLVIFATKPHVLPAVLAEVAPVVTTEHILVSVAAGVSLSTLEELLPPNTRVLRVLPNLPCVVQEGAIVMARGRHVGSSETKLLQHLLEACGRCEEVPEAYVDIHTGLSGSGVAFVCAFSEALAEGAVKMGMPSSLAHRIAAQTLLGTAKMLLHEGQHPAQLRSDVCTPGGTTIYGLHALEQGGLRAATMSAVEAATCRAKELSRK
UniProt Q2M2I8: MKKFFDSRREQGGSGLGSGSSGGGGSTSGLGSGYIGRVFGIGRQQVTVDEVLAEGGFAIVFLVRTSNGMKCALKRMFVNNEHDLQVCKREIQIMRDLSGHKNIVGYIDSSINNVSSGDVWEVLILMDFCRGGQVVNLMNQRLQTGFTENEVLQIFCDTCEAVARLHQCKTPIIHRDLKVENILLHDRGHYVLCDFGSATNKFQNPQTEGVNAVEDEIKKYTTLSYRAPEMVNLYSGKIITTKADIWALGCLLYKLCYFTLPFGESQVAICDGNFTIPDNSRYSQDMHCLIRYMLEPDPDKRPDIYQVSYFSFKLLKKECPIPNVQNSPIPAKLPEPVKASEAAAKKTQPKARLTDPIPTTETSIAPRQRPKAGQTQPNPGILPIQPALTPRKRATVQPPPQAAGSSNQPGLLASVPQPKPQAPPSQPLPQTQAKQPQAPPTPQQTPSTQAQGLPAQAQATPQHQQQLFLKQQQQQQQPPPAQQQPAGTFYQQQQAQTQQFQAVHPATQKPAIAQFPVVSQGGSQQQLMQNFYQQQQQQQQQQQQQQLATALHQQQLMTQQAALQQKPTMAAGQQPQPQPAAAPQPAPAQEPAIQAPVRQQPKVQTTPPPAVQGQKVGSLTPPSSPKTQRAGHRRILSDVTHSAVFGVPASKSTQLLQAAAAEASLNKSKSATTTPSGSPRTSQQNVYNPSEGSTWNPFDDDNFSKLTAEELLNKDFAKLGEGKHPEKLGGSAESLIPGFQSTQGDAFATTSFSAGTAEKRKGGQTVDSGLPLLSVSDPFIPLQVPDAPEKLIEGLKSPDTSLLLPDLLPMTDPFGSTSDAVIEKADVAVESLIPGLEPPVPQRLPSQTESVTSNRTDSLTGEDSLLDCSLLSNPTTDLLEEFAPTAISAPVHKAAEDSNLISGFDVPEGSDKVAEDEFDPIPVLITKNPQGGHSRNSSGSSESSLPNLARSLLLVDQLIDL
UniProt Q15120, whole entry, looked up: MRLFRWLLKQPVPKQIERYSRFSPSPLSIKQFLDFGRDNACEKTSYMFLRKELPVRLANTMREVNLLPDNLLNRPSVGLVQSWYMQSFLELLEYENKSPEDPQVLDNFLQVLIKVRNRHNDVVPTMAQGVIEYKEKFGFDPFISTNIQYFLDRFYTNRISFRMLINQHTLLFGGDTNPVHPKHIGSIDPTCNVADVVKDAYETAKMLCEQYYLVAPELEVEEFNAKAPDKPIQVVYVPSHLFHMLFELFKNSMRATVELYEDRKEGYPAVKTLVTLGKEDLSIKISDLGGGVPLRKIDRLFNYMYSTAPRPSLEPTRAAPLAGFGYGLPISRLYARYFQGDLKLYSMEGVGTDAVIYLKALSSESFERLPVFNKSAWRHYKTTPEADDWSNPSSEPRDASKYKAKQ
UniProt Q16891: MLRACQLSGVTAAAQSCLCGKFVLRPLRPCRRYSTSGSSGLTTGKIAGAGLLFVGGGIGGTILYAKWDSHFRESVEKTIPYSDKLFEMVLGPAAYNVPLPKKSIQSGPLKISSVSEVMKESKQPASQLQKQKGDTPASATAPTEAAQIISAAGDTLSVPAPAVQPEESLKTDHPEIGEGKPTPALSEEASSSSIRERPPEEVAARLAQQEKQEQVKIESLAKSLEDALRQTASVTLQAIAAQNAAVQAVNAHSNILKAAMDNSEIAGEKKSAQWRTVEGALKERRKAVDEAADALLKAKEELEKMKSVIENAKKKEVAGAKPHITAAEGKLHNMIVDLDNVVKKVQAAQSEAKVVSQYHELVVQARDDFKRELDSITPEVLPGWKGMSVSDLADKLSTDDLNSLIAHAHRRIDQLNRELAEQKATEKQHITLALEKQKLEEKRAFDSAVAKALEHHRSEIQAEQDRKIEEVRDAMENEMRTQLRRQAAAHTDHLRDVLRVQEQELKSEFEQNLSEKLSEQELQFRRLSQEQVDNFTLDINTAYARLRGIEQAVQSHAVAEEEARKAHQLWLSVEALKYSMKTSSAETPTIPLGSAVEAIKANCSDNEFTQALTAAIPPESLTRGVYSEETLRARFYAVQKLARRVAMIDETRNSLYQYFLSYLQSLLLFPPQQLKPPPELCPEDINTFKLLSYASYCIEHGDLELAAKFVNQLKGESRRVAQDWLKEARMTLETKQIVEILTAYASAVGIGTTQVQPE
UniProt Q4V328: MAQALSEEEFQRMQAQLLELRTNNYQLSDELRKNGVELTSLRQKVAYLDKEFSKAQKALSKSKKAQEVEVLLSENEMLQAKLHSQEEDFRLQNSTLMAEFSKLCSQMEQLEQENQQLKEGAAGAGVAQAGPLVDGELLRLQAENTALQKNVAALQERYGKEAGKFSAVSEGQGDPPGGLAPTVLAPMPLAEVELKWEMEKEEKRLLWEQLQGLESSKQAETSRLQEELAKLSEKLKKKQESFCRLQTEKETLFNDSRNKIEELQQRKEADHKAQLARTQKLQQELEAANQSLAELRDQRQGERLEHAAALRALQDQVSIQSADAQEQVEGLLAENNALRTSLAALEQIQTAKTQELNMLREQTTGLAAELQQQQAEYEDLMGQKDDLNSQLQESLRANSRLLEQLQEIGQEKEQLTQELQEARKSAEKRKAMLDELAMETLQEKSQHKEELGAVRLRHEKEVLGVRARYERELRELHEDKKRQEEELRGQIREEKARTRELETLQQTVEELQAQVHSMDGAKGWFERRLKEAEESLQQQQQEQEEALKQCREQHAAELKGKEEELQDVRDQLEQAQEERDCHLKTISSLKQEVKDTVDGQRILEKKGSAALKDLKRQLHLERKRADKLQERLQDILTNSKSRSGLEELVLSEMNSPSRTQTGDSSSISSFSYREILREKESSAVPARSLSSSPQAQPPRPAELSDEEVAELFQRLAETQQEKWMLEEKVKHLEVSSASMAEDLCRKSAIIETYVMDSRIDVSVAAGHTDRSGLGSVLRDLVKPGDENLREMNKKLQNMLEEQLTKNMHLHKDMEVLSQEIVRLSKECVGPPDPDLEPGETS
UniProt Q15369, whole entry: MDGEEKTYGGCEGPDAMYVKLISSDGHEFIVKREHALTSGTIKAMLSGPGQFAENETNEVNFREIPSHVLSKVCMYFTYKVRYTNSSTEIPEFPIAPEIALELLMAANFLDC
UniProt Q3KQV9: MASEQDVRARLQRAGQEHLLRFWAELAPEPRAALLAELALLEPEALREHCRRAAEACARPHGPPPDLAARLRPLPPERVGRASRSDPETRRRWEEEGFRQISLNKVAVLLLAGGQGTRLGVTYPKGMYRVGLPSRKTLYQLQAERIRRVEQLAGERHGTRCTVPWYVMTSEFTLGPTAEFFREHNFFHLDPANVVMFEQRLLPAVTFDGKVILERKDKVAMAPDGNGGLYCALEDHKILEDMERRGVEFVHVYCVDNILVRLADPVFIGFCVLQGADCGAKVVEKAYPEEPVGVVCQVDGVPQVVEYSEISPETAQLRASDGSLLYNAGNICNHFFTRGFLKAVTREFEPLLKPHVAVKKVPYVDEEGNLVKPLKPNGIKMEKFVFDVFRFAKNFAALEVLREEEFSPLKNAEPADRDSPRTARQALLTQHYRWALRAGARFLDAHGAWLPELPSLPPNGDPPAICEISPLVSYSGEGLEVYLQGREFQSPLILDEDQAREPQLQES
UniProt Q16762: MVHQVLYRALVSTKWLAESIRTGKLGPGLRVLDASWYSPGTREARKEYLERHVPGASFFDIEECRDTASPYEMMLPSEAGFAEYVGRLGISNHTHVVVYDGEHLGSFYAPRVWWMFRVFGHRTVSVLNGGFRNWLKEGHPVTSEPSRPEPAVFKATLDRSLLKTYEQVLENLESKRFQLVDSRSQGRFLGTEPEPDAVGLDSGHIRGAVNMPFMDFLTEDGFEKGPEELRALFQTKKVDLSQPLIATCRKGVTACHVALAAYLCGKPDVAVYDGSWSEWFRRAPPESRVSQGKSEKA
UniProt Q15813: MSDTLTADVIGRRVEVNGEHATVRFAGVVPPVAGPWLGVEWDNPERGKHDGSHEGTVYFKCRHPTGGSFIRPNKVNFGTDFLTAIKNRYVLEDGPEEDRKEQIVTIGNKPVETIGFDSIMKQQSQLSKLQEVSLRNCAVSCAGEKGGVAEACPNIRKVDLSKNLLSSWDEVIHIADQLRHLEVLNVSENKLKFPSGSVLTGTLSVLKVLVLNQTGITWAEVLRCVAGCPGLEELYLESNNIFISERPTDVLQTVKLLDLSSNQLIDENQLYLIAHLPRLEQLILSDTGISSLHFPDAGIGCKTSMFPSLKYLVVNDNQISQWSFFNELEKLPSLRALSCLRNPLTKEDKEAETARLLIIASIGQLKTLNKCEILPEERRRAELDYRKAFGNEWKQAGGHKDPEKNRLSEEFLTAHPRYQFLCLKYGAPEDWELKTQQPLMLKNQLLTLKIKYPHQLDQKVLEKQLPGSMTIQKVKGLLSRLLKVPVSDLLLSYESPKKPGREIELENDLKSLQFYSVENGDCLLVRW
UniProt Q2NL82: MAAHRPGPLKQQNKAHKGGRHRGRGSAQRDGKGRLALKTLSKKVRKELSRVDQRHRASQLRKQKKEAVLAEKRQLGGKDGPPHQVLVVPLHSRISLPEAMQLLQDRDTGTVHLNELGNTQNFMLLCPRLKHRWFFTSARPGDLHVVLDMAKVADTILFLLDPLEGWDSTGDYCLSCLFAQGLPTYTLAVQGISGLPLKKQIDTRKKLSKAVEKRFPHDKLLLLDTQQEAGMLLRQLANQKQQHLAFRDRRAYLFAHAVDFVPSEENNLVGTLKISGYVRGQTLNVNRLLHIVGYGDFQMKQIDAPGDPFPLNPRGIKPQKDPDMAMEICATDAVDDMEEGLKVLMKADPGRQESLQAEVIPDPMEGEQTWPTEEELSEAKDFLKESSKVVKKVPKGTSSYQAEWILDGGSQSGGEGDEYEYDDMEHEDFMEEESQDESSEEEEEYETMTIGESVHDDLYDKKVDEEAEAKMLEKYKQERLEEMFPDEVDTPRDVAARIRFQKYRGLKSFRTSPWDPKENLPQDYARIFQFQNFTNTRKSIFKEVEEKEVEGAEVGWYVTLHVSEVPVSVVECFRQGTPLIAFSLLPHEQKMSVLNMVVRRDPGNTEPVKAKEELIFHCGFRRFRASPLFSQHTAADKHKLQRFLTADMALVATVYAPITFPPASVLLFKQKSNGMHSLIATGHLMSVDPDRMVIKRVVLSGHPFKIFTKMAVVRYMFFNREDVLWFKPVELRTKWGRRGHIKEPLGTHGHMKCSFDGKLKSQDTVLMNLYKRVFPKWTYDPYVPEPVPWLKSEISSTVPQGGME

| Target | melting temperature shift (MBE1 concentration: 100 nM) | melting temperature shift (MBE1 concentration: 1 uM) |
| --- | --- | --- |
| UniProt Q15843 | -2.21 °C | -1.71 °C |
| PPP2R5E (UniProt Q16537) | -0.11 °C | -0.171 °C |
| SEC23A (UniProt Q15436) | 0.128 °C | -0.287 °C |
| PPP2R4 (UniProt Q15257) | -0.825 °C | 0.664 °C |
| SURF2 (UniProt Q15527) | 0.539 °C | -0.946 °C |
| SKIV2L (UniProt Q15477) | -0.888 °C | -0.183 °C |
| UniProt Q16670 | -1.59 °C | -4.02 °C |
| UniProt Q15582 | -0.704 °C | 0.159 °C |
| UniProt Q4KMQ1 | -1.36 °C | -0.231 °C |
| ALG11 (UniProt Q2TAA5) | -0.905 °C | 0.246 °C |
| RCN1 (UniProt Q15293) | -2.8 °C | -3.16 °C |
| NAB2 (UniProt Q15742) | -0.0256 °C | -0.737 °C |
| UniProt Q4L235 | -0.751 °C | -0.814 °C |
| TRIP6 (UniProt Q15654) | -0.94 °C | 1.52 °C |
| UBE2S (UniProt Q16763) | 0.14 °C | 0.605 °C |
| UniProt Q15506 | -9.26 °C | -4.36 °C |
| SEC23B (UniProt Q15437) | 1.2 °C | -0.0488 °C |
| TYSND1 (UniProt Q2T9J0) | -1.28 °C | -0.287 °C |
| RAB11B (UniProt Q15907) | -1.72 °C | 0.244 °C |
| HAGH (UniProt Q16775) | -1.74 °C | 0.159 °C |
| UniProt Q562F6 | 0.177 °C | -0.427 °C |
| UniProt Q16512 | 0.568 °C | -0.104 °C |
| PYCRL (UniProt Q53H96) | -1.11 °C | -0.174 °C |
| QRICH1 (UniProt Q2TAL8) | -0.282 °C | -0.224 °C |

Part of the list above, tab-delimited:
Target	melting temperature shift (MBE1 concentration: 100 nM)	melting temperature shift (MBE1 concentration: 1 uM)
NAB2 (UniProt Q15742)	-0.0256 °C	-0.737 °C
UniProt Q4L235	-0.751 °C	-0.814 °C

Continued.

| Target | melting temperature shift (MBE1 concentration: 100 nM) | melting temperature shift (MBE1 concentration: 1 uM) |
| --- | --- | --- |
| RBBP5 (UniProt Q15291) | -1.4 °C | -2.32 °C |
| UniProt Q15208 | 0.0988 °C | -0.212 °C |
| AAK1 (UniProt Q2M2I8) | -0.0733 °C | 0.14 °C |
| UniProt Q15120 | 0.902 °C | 0.34 °C |
| NFKBIB (UniProt Q15653) | 1.25 °C | 0.757 °C |
| KIF14 (UniProt Q15058) | -0.685 °C | -0.0769 °C |
| MRPL23 (UniProt Q16540) | 0.366 °C | 0.458 °C |
| MED1 (UniProt Q15648) | 0.171 °C | 0.556 °C |
| TPD52L1 (UniProt Q16890) | -2.21 °C | -4.25 °C |
| IMMT (UniProt Q16891) | -0.818 °C | 0.342 °C |
| EML3 (UniProt Q32P44) | -0.0611 °C | -0.434 °C |
| GRIPAP1 (UniProt Q4V328) | 0.556 °C | -0.458 °C |
| ATP6AP1 (UniProt Q15904) | -1.13 °C | 0.563 °C |
| P3H1 (UniProt Q32P28) | -0.55 °C | -0.872 °C |
| TBC1D10B (UniProt Q4KMP7) | -0.215 °C | -0.376 °C |
| UniProt Q2NKJ3 | -0.214 °C | 0.586 °C |
| TCEB1 (UniProt Q15369) | -0.694 °C | -0.0794 °C |
| ADRM1 (UniProt Q16186) | 0.959 °C | 0.488 °C |
| E2F4 (UniProt Q16254) | 0.232 °C | -0.415 °C |
| MAN2A1 (UniProt Q16706) | -1.15 °C | 0.557 °C |
| CYTH1 (UniProt Q15438) | -0.503 °C | -0.409 °C |
| PPP2R5A (UniProt Q15172) | 0.421 °C | 0.635 °C |
| UAP1L1 (UniProt Q3KQV9) | -0.557 °C | 0.228 °C |
| PDCD2 (UniProt Q16342) | -0.557 °C | -0.724 °C |

| Target | melting temperature shift (MBE1 concentration: 100 nM) | melting temperature shift (MBE1 concentration: 1 uM) |
| --- | --- | --- |
| TRADD (UniProt Q15628) | -0.734 °C | -0.141 °C |
| UniProt Q16526 | -0.946 °C | -0.577 °C |
| TKFC (UniProt Q3LXA3) | -1.19 °C | 0.731 °C |
| IFI16 (UniProt Q16666) | -0.25 °C | -0.224 °C |
| HADH (UniProt Q16836) | -0.107 °C | -0.0604 °C |
| MAPK14 (UniProt Q16539) | -0.574 °C | -0.372 °C |
| SHROOM1 (UniProt Q2M3G4) | 1.22 °C | -0.275 °C |
| RABL6 (UniProt Q3YEC7) | -0.208 °C | 0.799 °C |
| QSER1 (UniProt Q2KHR3) | 0.416 °C | 0.00641 °C |
| UniProt Q53GS7 | -0.616 °C | 0.212 °C |
| TST (UniProt Q16762) | -0.0641 °C | 0.00641 °C |
| WDR43 (UniProt Q15061) | -0.0827 °C | -0.555 °C |
| TAB1 (UniProt Q15750) | -0.0659 °C | -0.0518 °C |
| ELAVL1 (UniProt Q15717) | -0.574 °C | -0.579 °C |
| UniProt Q15532 | -3.42 °C | 0.493 °C |
| UniProt Q16594 | -0.653 °C | -0.653 °C |
| TBCE (UniProt Q15813) | -0.46 °C | -0.245 °C |
| TSR1 (UniProt Q2NL82) | -1.01 °C | -0.397 °C |
| PDIA6 (UniProt Q15084) | -0.623 °C | 0.372 °C |
| UniProt Q1MSJ5 | 3.69 °C | 0.49 °C |
| UniProt Q4ADV7 | 0.275 °C | 0.281 °C |
| WDR81 (UniProt Q562E7) | -1.02 °C | -0.0235 °C |

— the supplement of paper PMC12595434, “Development of retinoid nuclear receptor pathway antagonists through targeting aldehyde dehydrogenase 1A3” (iScience, 2025)
